Test results as given in article PMC7457539.

The chains behind the UniProt entries cited, without tags or fusion partners.
UniProt O15372: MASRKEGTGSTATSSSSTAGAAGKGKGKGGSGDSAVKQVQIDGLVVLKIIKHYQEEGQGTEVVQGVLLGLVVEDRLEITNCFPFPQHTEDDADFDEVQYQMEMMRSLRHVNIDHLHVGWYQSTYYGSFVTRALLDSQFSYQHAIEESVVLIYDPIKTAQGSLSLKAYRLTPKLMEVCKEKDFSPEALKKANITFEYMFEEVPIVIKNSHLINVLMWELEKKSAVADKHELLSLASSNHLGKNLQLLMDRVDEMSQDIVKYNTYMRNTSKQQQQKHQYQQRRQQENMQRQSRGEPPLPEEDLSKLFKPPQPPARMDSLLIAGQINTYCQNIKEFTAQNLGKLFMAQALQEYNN
UniProt O95863: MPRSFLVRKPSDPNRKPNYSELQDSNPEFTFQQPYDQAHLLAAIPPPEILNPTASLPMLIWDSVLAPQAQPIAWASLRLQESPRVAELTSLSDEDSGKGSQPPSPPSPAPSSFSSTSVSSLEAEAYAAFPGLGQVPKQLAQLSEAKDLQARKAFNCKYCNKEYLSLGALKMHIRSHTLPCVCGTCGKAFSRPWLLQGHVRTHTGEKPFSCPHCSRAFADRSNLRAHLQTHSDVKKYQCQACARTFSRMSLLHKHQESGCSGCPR

Molecular target: EIF3H-Flag (human) (UniProt O15372)
Assay: affinity purification with mass spectrometry; EIF3H-Flag or vector transfected in HEK293T for 24 h, 10 uM MG132 for 4 h, lysate immunoprecipitated with anti-FLAG M2 beads, LC-MS/MS

For “endogenous Snail (from UniProt O95863 1-264)”, the binding was “binds”.

These are yes or no findings as the source states them, for the method shown. In cells and extracts the contact can be indirect. These calls come from enrichment with a bait or labelling near it, and not all partners need be listed.
